Data as given in PubChem BioAssay AID1508597 (Cure First, 2020).

- Purpose: 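Survival screen with siRNA in ovarian cancer cells derived from patients, with or without rucaparib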 (primary screen)
- Cells: human ovarian carcinoma lines grown from tumours: OCI-P5x (papillary serous) and OCI-C5x (clear cell)
- Reagents: siRNA pool against human genes, 1.25 pmol siRNA per well
- Timing: 72 h or 96 h, depending on the cell culture
- Treatment: rucaparib 20 µM (about IC30) or vehicle, present until read-out
- Rucaparib or vehicle: Vehicle
- Cell line: OCI-C5x (clear cell)
- Measurement: 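Luminescent ATP-based viability assay read 72 or 96 h after transfection, depending on culture, given as normalised percent viability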
- Direction: viability, normalised: higher = more viable cells remaining
- Hit rule: 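a well counts as a hit if its normalised viability is under 80 percent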
- Meaning of the calls: active = viability under 80%; inactive = viability 80% or more
This is an unselected part of the about 2,100 reagents, in one setting of the screen. 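Calls flag viability under 80% in either arm, not effects specific to rucaparib; the reference for percent is not stated.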 Unmarked entries are inactive. Some reagents were tested in more than one well and are listed for each. Not stated in the record: the 100% reference.

BLM, technical replicate 1 → viability, normalised (%) = 64 (active)
BLM, technical replicate 1 → viability, normalised (%) = 37.5 (active)
BLM, technical replicate 2 → viability, normalised (%) = 60.4 (active)
BLM, technical replicate 2 → viability, normalised (%) = 41 (active)
BLM, technical replicate 3 → viability, normalised (%) = 23.6 (active)
BLM, technical replicate 3 → viability, normalised (%) = 86.4
MSH4, technical replicate 1 → viability, normalised (%) = 44.1 (active)
MSH4, technical replicate 2 → viability, normalised (%) = 58.1 (active)
MSH4, technical replicate 3 → viability, normalised (%) = 57.8 (active)
PRKG2, technical replicate 1 → viability, normalised (%) = 70 (active)
PRKG2, technical replicate 2 → viability, normalised (%) = 64.1 (active)
PRKG2, technical replicate 3 → viability, normalised (%) = 80.3
GRK4, technical replicate 1 → viability, normalised (%) = 52.4 (active)
GRK4, technical replicate 2 → viability, normalised (%) = 51.8 (active)
GRK4, technical replicate 3 → viability, normalised (%) = 52.4 (active)
APPL1, technical replicate 1 → viability, normalised (%) = 59.4 (active)
APPL1, technical replicate 2 → viability, normalised (%) = 48.5 (active)
APPL1, technical replicate 3 → viability, normalised (%) = 54.8 (active)

Ordered by “viability, normalised (%)” (lowest first): 4 of the entries above
MSH4, technical replicate 1 → viability, normalised (%) = 44.1 (active)
MSH4, technical replicate 3 → viability, normalised (%) = 57.8 (active)
MSH4, technical replicate 2 → viability, normalised (%) = 58.1 (active)
BLM, technical replicate 3 → viability, normalised (%) = 86.4

Next reagents follow.
ACTB, technical replicate 1 → viability, normalised (%) = 47.9 (active)
ACTB, technical replicate 2 → viability, normalised (%) = 34.2 (active)
ACTB, technical replicate 3 → viability, normalised (%) = 27.1 (active)
EPHA2, technical replicate 1 → viability, normalised (%) = 37 (active)
EPHA2, technical replicate 2 → viability, normalised (%) = 50.6 (active)
EPHA2, technical replicate 3 → viability, normalised (%) = 50.4 (active)
BRCA1, technical replicate 1 → viability, normalised (%) = 43.6 (active)
BRCA1, technical replicate 1 → viability, normalised (%) = 53.4 (active)
BRCA1, technical replicate 2 → viability, normalised (%) = 44.4 (active)
BRCA1, technical replicate 2 → viability, normalised (%) = 39.3 (active)
BRCA1, technical replicate 3 → viability, normalised (%) = 30.7 (active)
BRCA1, technical replicate 3 → viability, normalised (%) = 44.1 (active)
BRPF3, technical replicate 1 → viability, normalised (%) = 31.5 (active)
BRPF3, technical replicate 2 → viability, normalised (%) = 34.5 (active)
BRPF3, technical replicate 3 → viability, normalised (%) = 45.7 (active)
